Measurements as given in PubChem BioAssay AID256 (DTP/NCI, 2004).
The list is a part of this screen's results and no random one: it is rich in T/C values a quarter to a half above the control, in often repeated tests (any T/C) and in doses without a T/C. Further doses and runs are listed elsewhere. T/C is the treated group as % of the vehicle group. Some entries give survivors of the animals treated and no T/C: the source files T/C as zero there, which appears to mark a toxic dose or a test without result, not a measured value. Counts of survivors are from the toxicity check (mostly the fifth day) where no day follows; animals may have died later. Schedules are NCI's codes, taken here to give the interval after Q, in days (D) or hours (H), and the number of doses after X.

System: CD2F1 mice, L1210 leukemia ip, survival T/C
Test: NCI In Vivo Anticancer Drug Screen. Data for tumor model L1210 Leukemia (intraperitoneal) in CD2F1 (CDF1) mice
Conditions: higher T/C = longer survival
Method in brief: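 Vehicle-treated tumor-bearing mice served as controls (C) for compound-treated mice (T). Reported figure is T divided by C.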

COCC1=Nc2c([nH]cnc2=S)NN1
survivor count (T/C endpoint: mean survival time, dose: 100.0 mg/kg/injection, schedule: Q01DX001 (ip), vehicle: carboxymethylcellulose (CMC)): 0 of 6 | survivor count (T/C endpoint: mean survival time, dose: 200.0 mg/kg/injection, schedule: Q01DX001 (ip), vehicle: carboxymethylcellulose (CMC)): 0 of 6 | survivor count (T/C endpoint: mean survival time, dose: 400.0 mg/kg/injection, schedule: Q01DX001 (ip), vehicle: carboxymethylcellulose (CMC)): 0 of 6

Cc1ccc2c(c1)C1(C)OC(C=CC1=O)O2 (stereo not drawn)
survivor count (T/C endpoint: median survival time, dose: 50.0 mg/kg/injection, schedule: Q01DX005 (ip), vehicle: Klucel (hydroxypropylcellulose) (HPC)): 3 of 6 | survivor count (T/C endpoint: median survival time, dose: 100.0 mg/kg/injection, schedule: Q01DX005 (ip), vehicle: Klucel (hydroxypropylcellulose) (HPC)): 0 of 6 | survivor count (T/C endpoint: median survival time, dose: 200.0 mg/kg/injection, schedule: Q01DX005 (ip), vehicle: Klucel (hydroxypropylcellulose) (HPC)): 0 of 6 | survivor count (T/C endpoint: median survival time, dose: 400.0 mg/kg/injection, schedule: Q01DX005 (ip), vehicle: Klucel (hydroxypropylcellulose) (HPC)): 0 of 6

CCCCN1CCCCC1C(=O)Nc1c(C)cccc1C (stereo not drawn)
survivor count (T/C endpoint: mean survival time, dose: 75.0 mg/kg/injection, schedule: Q01DX001 (ip), vehicle: saline): 2 of 6 | survivor count (T/C endpoint: mean survival time, dose: 150.0 mg/kg/injection, schedule: Q01DX001 (ip), vehicle: saline): 0 of 6 | survivor count (T/C endpoint: mean survival time, dose: 300.0 mg/kg/injection, schedule: Q01DX001 (ip), vehicle: saline): 0 of 6

O=C1C=C(O)C(=O)C=C1O
survivor count (T/C endpoint: mean survival time, dose: 100.0 mg/kg/injection, schedule: Q01DX001 (ip), vehicle: saline): 2 of 6 | survivor count (T/C endpoint: mean survival time, dose: 200.0 mg/kg/injection, schedule: Q01DX001 (ip), vehicle: saline): 0 of 6 | survivor count (T/C endpoint: mean survival time, dose: 400.0 mg/kg/injection, schedule: Q01DX001 (ip), vehicle: saline): 0 of 6
